These are yes or no findings as the source states them, for the method shown. In cells and extracts the contact can be indirect. Some entries that bind do so weakly or less than the wild type.

Protein sequences, listed by entry. Tags and fused reporters are not part of them. Lines headed by an entry give the natural chain unless they say otherwise; changes in a name come on top. Chains listed by the source or under a name are the forms on record and can include a tag or linker.
WT-tau(4R0N) (P10636, form named): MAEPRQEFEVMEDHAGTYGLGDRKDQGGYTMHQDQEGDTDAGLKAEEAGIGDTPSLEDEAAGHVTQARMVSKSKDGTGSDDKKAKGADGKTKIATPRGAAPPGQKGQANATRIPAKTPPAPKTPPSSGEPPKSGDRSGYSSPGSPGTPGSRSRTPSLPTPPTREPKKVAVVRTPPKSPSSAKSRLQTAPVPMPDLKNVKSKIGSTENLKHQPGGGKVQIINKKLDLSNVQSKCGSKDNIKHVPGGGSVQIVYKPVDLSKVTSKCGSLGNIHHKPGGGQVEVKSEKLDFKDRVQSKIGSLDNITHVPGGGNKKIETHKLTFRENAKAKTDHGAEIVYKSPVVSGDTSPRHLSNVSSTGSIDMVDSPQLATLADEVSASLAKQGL
UniProt O95433: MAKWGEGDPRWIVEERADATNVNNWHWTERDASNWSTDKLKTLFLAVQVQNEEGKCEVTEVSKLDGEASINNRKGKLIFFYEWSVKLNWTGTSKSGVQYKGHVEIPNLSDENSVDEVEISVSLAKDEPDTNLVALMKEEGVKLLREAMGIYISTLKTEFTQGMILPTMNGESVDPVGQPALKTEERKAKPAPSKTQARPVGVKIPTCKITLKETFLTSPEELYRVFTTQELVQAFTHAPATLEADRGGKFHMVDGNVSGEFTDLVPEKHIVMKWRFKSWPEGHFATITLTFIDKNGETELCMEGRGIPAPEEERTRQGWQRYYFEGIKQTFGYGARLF

The target in the test is WT-tau(4R0N) (UniProt P10636). Nature of the test: co-IP.

As for “Aha1 (endogenous, HeLa) (from UniProt O95433 1-338)”, the binding entry is “binds”.

The values are drawn from paper doi:10.1101/412908.
